# In PubChem BioAssay AID587 (National Center for Advancing Translational Sciences (NCATS), 2007):
# Out of some 59,000 compounds screened, about 35 (0.06%) were called active. Inconclusive results, whose numbers are uncertain, are shown with a selection of clear calls. No stated cut-off is given here; in the data, active means max dye-equivalent concentration above about 10 nM; inconclusive means between about 1.1 nM and that limit; inactive means weaker than that.
# Test: qHTS Assay for Spectroscopic Profiling in Texas Red Spectral Region
# Settings: Compound fluorescence, Texas Red channel, 547/618 nm; active compounds read high
# Outline: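 qHTS profiling of intrinsic compound fluorescence; 100 mM Tris pH 8.0; 15 min RT; ex 547 / em 618 nm; response expressed as Texas Red dye-equivalent concentration from six-point plate standard.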
row,Compound,max dye-equivalent concentration
1,COc1ccccc1NC(=O)CSc1nc(O)cc(=O)n1C,inconclusive: 2.2 nM
2,Cn1c(SCC(=O)Nc2cccc(F)c2)nnc1-c1cc2ccccc2o1,inconclusive: 2.2 nM
3,OCCN[C@@H]1c2cc(Cl)ccc2-c2c(Cl)cc(Cl)cc21,inconclusive: 1.2 nM
4,Cc1ccc(C)c(C(=O)n2cnnc2N)c1,inconclusive: 1.8 nM
5,CC(C)OCCCn1c(=NC(=O)c2ccncc2)c(C#N)cc2c(=O)n3ccccc3nc21,inactive
6,CNc1nc2sc3c(c2c(=O)n1C)CC(C)(C)SC3,inconclusive: 1.2 nM
7,O=C(CCN1CCN(c2ccccc2F)CC1)c1ccc(Br)cc1,inconclusive: 1.1 nM
8,Cc1ccc(Cn2c(SCCN3CCCCC3)nc3c2c(=O)n(C)c(=O)n3C)cc1,inconclusive: 1.2 nM
9,CCN1CCN(Cc2ccc(NC(=O)Nc3cccs3)cc2)CC1,inconclusive: 1.2 nM
10,Cc1ccc2c(c1)C1CN(C)CCC1N2C(=O)Nc1ccc(Cl)cc1 (configuration not stated),inconclusive: 1.1 nM
11,Cc1c(C(=O)NCc2ccccn2)oc2ccccc12,inconclusive: 1.1 nM
12,Cc1ccc2c(c1)c(C)c(C)n2CC(O)Cn1nc(C)c(Br)c1C (configuration not stated),inconclusive: 1.1 nM
13,CS(=O)(=O)N(CCc1ccccc1)CC(=O)N1CCN(c2ccccc2F)CC1,inconclusive: 1.2 nM
14,CCOc1ccc2[nH]c(=O)c(CN(CCOC)C(=O)N3CCOCC3)cc2c1,inconclusive: 1.2 nM
15,CC1CCN(S(=O)(=O)c2ccc3c(c2)c(=O)c(C(=O)N2CCCCC2)cn3C)CC1,inconclusive: 1.2 nM
16,O=C(CCn1c(=O)oc2ccccc21)N1CCc2ccccc21,inconclusive: 1.5 nM
17,O=C(c1ccco1)N1CCCN(C(=O)c2ccco2)CC1,inconclusive: 1.9 nM
18,Cc1cc(=O)oc(C)c1C(=O)NCCCN1C(C)CCCC1C (configuration not stated),inconclusive: 1.9 nM
19,c1ccc(-n2nnnc2SCc2cccc3nsnc23)cc1,inconclusive: 1.4 nM
20,Cc1ccc(C)c(OCCCC(=O)O)c1,inconclusive: 1.1 nM
21,Cc1cccc(C)c1NC(=O)CSc1nnc(-c2ccncc2)n1Cc1ccco1,inconclusive: 1.7 nM

row,Compound,max dye-equivalent concentration
1,CCOC(=O)Nc1ccc2c(C)cc(=O)oc2c1,inconclusive: 1.6 nM
2,CCCCCn1c(-c2ccco2)nc2nc3ccccc3nc21,inconclusive: 1.9 nM
3,Cc1ccc(-c2csc3nc(C)n(-n4c(C)ccc4C)c(=O)c23)o1,inconclusive: 1.1 nM
4,CC(=O)N=c1sc2ccccc2n1C,inconclusive: 1.1 nM
5,CCOc1ccccc1NC(=O)CCC(=O)Nc1ccc2nc(N3CCN(C)CC3)cc(C)c2c1,inconclusive: 1.6 nM
6,c1ccc(CCNc2ncnc3c2nnn3Cc2ccccc2)cc1,inactive
7,CS(=O)(=O)Nc1cccc(-c2ccc3ncnc(N4CCNCC4)c3c2)c1,inactive
8,O=C(Nc1cccc2ccccc12)N1CCN(c2ccccc2)CC1,inconclusive: 1.1 nM
9,Cc1cccc(C)c1NC(=O)CN1CCN(CCCC(c2ccc(F)cc2)c2ccc(F)cc2)CC1,inactive
10,COC(=O)c1ccccc1N1C(=O)C2C(C1=O)[C@H]1C=C[C@@H]2C1 (some centres not stated),inconclusive: 1.7 nM
11,CN1CCc2c(sc(/N=C/c3ccco3)c2C(N)=O)C1,inactive
12,CCOC(=O)C1=C(C)OC(N)=C(C#N)C1c1cc2c(cc1Br)OCO2 (configuration not stated),inconclusive: 3 nM
13,O=C1OCCC1Sc1nc(-c2ccccc2)cs1 (configuration not stated),inconclusive: 1.1 nM
14,CCOc1ccc(NC(=O)N(C2CCCCCC2)C2CCN(C(C)=O)CC2)cc1,inconclusive: 1.9 nM
15,CC(C(=O)NCCCN1CCOCC1)n1cccc1C(=O)c1ccccc1 (configuration not stated),inconclusive: 1.5 nM
16,Cc1c(NC(=O)CSc2nnc3sc4ccccc4n23)c(=O)n(-c2ccccc2)n1C,inconclusive: 1.6 nM
17,COc1cccc(Nc2ncc3nc(C)c(=O)n(CCC#N)c3n2)c1,inactive
18,COc1ccc(CCNC(=O)c2c[nH]c3ccccc3c2=O)cc1OC,inconclusive: 1.2 nM
19,CCN1CCN(C(=O)c2ccc3c(=O)n(C4CCCC4)c(=S)[nH]c3c2)CC1,inconclusive: 1.5 nM
20,O=C(CSc1nc2ccccc2c(=O)n1CC1CCCO1)N1CCN(c2ccccc2)CC1 (configuration not stated),inconclusive: 1.6 nM
21,Cn1nnnc1SCC1=C(C(=O)O)N2C(=O)[C@@H](NC(=O)[C@@H](O)c3ccccc3)[C@@H]2SC1,inconclusive: 1.1 nM

# A few values from the list:
# In max dye-equivalent concentration, `CCOc1ccc2[nH]c(=O)c(CN(CCOC)C(=O)N3CCOCC3)cc2c1` is listed with inconclusive: 1.2 nM
# In max dye-equivalent concentration, `O=C(Nc1cccc2ccccc12)N1CCN(c2ccccc2)CC1` is listed with inconclusive: 1.1 nM
